## Primary screen of a compound library

The chains behind the UniProt entries cited, without tags or fusion partners.
UniProt E9BF75, entry or part of it: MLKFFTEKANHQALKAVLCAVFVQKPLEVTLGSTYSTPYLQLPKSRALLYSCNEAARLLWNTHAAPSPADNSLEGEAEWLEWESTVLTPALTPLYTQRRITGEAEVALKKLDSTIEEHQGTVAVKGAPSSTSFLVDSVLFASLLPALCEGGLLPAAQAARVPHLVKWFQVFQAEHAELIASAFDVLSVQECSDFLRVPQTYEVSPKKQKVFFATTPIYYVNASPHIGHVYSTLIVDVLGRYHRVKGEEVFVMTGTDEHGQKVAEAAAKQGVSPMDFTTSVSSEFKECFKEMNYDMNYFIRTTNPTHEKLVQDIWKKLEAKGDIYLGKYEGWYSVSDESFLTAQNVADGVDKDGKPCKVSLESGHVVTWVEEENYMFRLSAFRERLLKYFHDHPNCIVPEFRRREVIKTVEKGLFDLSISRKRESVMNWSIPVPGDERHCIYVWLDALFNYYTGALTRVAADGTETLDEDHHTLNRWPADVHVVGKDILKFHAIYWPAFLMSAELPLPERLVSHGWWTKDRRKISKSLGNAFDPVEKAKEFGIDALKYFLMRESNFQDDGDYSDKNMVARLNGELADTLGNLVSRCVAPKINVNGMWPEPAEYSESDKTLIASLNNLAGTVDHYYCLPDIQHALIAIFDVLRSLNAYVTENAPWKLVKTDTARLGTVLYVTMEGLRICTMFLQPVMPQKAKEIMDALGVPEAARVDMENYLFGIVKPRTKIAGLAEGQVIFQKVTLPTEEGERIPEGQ

From ChEMBL document CHEMBL3988442, “University of Dundee, Small-Polar-MMV Screening Library” (2021).

A: 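Assay on Mycobacterium tuberculosis, filed only as a heat shock assay from Cornell; the read-out is not stated. The concentration is filed as 10 mM, unlikely as a test dose, so the dose is not known. Higher reads as stronger inhibition (inferred: compounds with an IC50 in retests scored well above the rest). Size under these conditions: about 69,000 compounds, about 930 of them at 50% or above in at least one test.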
B: 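Methionyl-tRNA synthetase (putative), Leishmania donovani (UniProt E9BF75). Primary screen of methionyl-tRNA synthetase; the read-out is not stated. The test concentration is not given. The values are filed as inhibition. Of about 68,000 compounds tested this way, about 24 (0.035%) reached 50% or more in at least one test.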
C: 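Whole-cell assay for inhibitors of Mycobacterium tuberculosis growth, labelled Cornell in the record; the read-out is not stated. The concentration is filed as 10 mM, unlikely as a test dose, so the dose is not known. Higher means stronger inhibition (inferred from two other growth screens of the library). Of about 53,000 compounds tested this way, about 900 (1.7%) reached 50% or more in at least one test.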

Results are percentages, as filed.
The record does not define 0% and 100%; most values in the screen are far below 50% and negative numbers occur (in some assays of this library far below -100).
This is an unselected part of the compounds tested.

O=C(NCc1cccc(F)c1)N1CCC2(CC(=O)N(c3ccsc3)C2)C1 (stereo unspecified) read A: 6.815%; B: 15.24%; C: 23.73%. Result for Cc1cc(Cn2c(=O)c3c(C(F)(F)F)cc(C)nc3n2C)on1 was A: 3.969%; B: 7.833%; C: -2.558%. Result for Cc1ccc(CN2C[C@H](O)C[C@H]2c2nc(-c3ccc(F)cc3)no2)cc1 was A: -37.32%; B: 7.492%; C: 20.41%. CCS(=O)(=O)N1CC[C@H]2O[C@H](c3nnc(C)o3)CC[C@H]21 read B: 14.92%. For O=C(c1ccccc1F)N1CCC2(CC1)CC(N1CCCC1)CO2 (stereo unspecified) the result was B: 15.06%. c1ccc(OCCNC2CCN(c3ncccn3)CC2)cc1 gave A: -8.726%; B: 16.94%; C: -30.52%. For CC(C(=O)N(C)Cc1noc(C2CCC2)n1)N1CCc2ccccc2C1 (stereo unspecified) the result was A: -1.545%; B: 4.839%; C: -10.23%.

COc1cccc(COC(C)C(=O)N(C)Cc2nnc3n2CCC3)c1 (stereo unspecified) gave A: -43.62%; B: 8.333%; C: 1.715%. For CC(=O)N1CC(C(=O)N2CCCC(Cn3ccnc3C)C2)C1 (stereo unspecified) the result was A: 12.7%; B: 11.49%; C: 7.509%. Cc1ccc(C(O)CNC(=O)NCc2c(C)cc(C)[nH]c2=O)cc1 (stereo unspecified) read A: -16.34%; B: 19.43%; C: -29.9%. OC(CN1CCCc2cc(OC(F)F)ccc21)Cn1cccn1 (stereo unspecified) gave A: -21.32%; B: 1.37%. CC(C)[C@H](N)C(=O)N1CCSc2ccccc2C1 read B: 25.23%. Result for Cc1nn(C)cc1-c1cc(C(F)(F)F)nc(NC2CCCCC2)n1 was A: 12.7%; B: 11.58%; C: 22.2%. For O=C(NCCCN1CCN(c2ncccn2)CC1)NCC1CCOC1 (stereo unspecified) the result was A: -2.269%; B: 5.897%; C: 17.33%.

Result for CCc1ccc(CN2CCC3(CCCN(C(=O)N(C)C)C3)C2)o1 (stereo unspecified) was A: 26.59%; B: 8.014%; C: 20.55%. O=S(=O)(c1ccc(F)cc1)N1CCOC[C@H](Oc2cnccn2)C1 gave A: -50.25%; B: -7.519%; C: -5.41%. CCN(CC)c1ncc(CNC2CCc3nc(C)nn3C2)s1 (stereo unspecified) gave A: -11.41%; B: 5.943%; C: 17.35%. With O=C(Cn1cccn1)N(CCO)CCSc1ccc(Cl)cc1 the screen gave A: 0.05454%; B: 10.09%; C: 29.54%. For c1cc(-c2nnc3sc(CCN4CCCC4)nn23)ccn1 the result was A: 16.68%; B: 20.33%; C: 15.4%. Cc1csc(C2CCCCN2C(=O)CCCn2cncn2)n1 (stereo unspecified) read A: -5.897%; B: 7.666%; C: 5.841%. For CCOc1ccc(N(C)Cc2nc(C)c(C)o2)cc1 the result was A: 17.56%; B: 0.2841%.

CNC(=O)CN(C)c1cncc(OCc2ccccc2)n1 read A: -4.922%; B: 11.56%; C: 18.13%. For [H][C@@]12CCCO[C@]1([H])[C@H](OCc1cccnc1)CN2C(=O)c1ccc(C)o1 the result was A: -28.85%.

For reference, 3 entries once more:

SMILES	A	B	C
CNC(=O)CN(C)c1cncc(OCc2ccccc2)n1	-4.922	11.56	18.13
Cc1ccc(C(O)CNC(=O)NCc2c(C)cc(C)[nH]c2=O)cc1 (stereo unspecified)	-16.34	19.43	-29.9
CCc1ccc(CN2CCC3(CCCN(C(=O)N(C)C)C3)C2)o1 (stereo unspecified)	26.59	8.014	20.55